About 3,700 (7%) of roughly 53,000 sequences were called active.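 Rule for the calls: active = gene knockdowns whose robust z-score for IL-1 alpha signal is at least 2 or at most -2, so actives lie on both sides; inactive = the rest.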 Some of the results follow.

The nature of the assay: Components of the Cytosolic LPS Sensing Pathway: Gene Identification via Genome-wide siRNA Screen.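 Note: robust z of the log signal after scaling to non-targeting control siRNA wells of the plate.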 The following applies: RAW264.7 macrophages, IL-1a HTRF, actives lie on both sides, screened at 100 nM (by protocol), cells primed 5 h with Pam3CSK4 first. A digest of the protocol:
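Using IL-1a HTRF as read-out, the screen measured release from RAW264.7 cells after 48h siRNA knockdown (100 nM), 5 h Pam3CSK4 priming and 24 h cytosolic LipidA. Values were expressed relative to negative-control wells as robust z-scores.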
In general terms: TR-FRET usually uses a lanthanide donor and a delayed reading to cut background.
As for GGCCCUUGUUUAAAGCCAUTT against Asns, the z-score is inactive: 0.0954.
For GCCAAAAAUAUGGGAGAUATT against Col1a1 the value was inactive: 0.787.
Turning to CCUUCUUCUUACUGAUAAUTT against Olfr1276, the z-score was inactive: -0.471.
With GGAGCAUUUGUUACAAAUUTT against Ivns1abp, the z-score was inactive: 1.49.
On to GGACUUUGAAGAGGACAAUTT against Dhx38, for which the z-score was inactive: 1.65.
On to GGGAAAGACGAGUCAAAGGTT against Gbx2, for which the z-score is inactive: -0.492.
As to GGAGAAGCAAAACUUUUAATT against Snrpa1, the z-score is active: -2.87.
Take GCACAGUGACUACAUUCCUTT against Olfr479: the z-score was inactive: -0.282.
In the case of GGGUGGCAAGUGUACAGCUTT against Olfm3, the z-score was inactive: 0.882.
As to GCCGACUGGUUAAAUACAUTT against Nme3, the z-score was active: 5.79.
Consider GGAAUUCCACCUAAAAUUGTT against Ttn, for which the z-score was inactive: 1.32.
As to GGACAGAGCAGACAUUCAUTT against Rps6kc1, the z-score is inactive: -0.147.
In the case of GAGUCCCAUUGAUAGAGGUTT against Olfr741, the z-score was inactive: 0.395.
For GCUACAAUGUUUUUGGAGATT against Gc, the z-score was inactive: -0.0171.
In the case of GGUUCAUUUCAGUUGGGUUTT against Higd2a it was inactive: -0.00768; in that of GCCCAAAUCUCAUUCAUAGTT against Kif5a, inactive: -0.718.
In the case of GGCUGUUCGAGCUAUCCACTT against Asap3 it was inactive: 0.214; in that of “CCUUGGUGGCCCAUUUAGCTT against 9830107B12Rik”, inactive: -0.128.
In the case of CGGUUUGGAAUGAAGAAUUTT against Rasa3, the z-score was inactive: 0.808.
Turning to GCGAAAUCAGUUGGUAAAUTT against Atf7, the z-score was inactive: 0.185.
As for GGCCAACUGCCCUCACAUUTT against Rbbp9, the z-score was inactive: -0.445.
On to GCCGAAGUAUCUGAUAGUCTT against Abi3bp, for which the z-score was inactive: 0.97.
For the sequence GCUAAGAUUCCUUCCAGUATT against Adm2, the z-score is inactive: 0.98.
As to CGAGUGAAUGACUUUAACATT against Ubn1, the z-score is inactive: 0.687.
In the case of GGAGAAGAAUUAAAUGGAGTT against Rhox5 it was inactive: -0.314; in that of CCCAAUCAGCAAAGACGACTT against Trabd, inactive: -0.697; in that of CCGACUCCUACAGAUUAUUTT against Slc35g3, inactive: -0.489.
As for GGAAGUUCAAGUGCUACUGTT against Zpbp2, the z-score is inactive: -2.
For AGGUAACAGUUCAACAGUATT against Olfr1039, the z-score is inactive: 0.332.
Take GGGAGCAAGAGCUCUUUUCTT against Zxdc: the z-score was inactive: 0.625.
As for GGAGGACUGGGAAGAUCAUTT against Aqp5, the z-score is inactive: 0.152.
In the case of GGUUAUUAAGACCCAGGUCTT against Tctex1d1 it was inactive: -0.956.
For CCGUAACAAGGAUCAGGAATT against S100a6 the value was inactive: 0.422; for GCAGUUAAGGACAAUCAUGTT against Fhdc1, inactive: 1.32; for CGAUGACAUCAGGAUUGUUTT against Adgrg7, inactive: -0.124.
With GGGAUUCAGUAUAAAACACTT against Nup37, the z-score was inactive: -1.25.
As for GCACUUUUCGGAACUAUAUTT against Rbp1, the z-score was inactive: -1.05.
As to GGAACUGUAUUCAUUGAUGTT against Rnpepl1, the z-score is inactive: 0.195.
For the sequence CCUAUGUGUGUGAUCUUGATT against Nnmt, the z-score was inactive: -0.0647.
On to GGACGAACAGUAUUAUACUTT against Lhx5, for which the z-score is active: 2.11.
As to CCAGCUUUUGUUUGUUAGATT against Trappc11, the z-score was inactive: 0.56.
Regarding GCAACCUUAUGCUCUAUUUTT against Ythdf3, the z-score is inactive: 0.519.
As for GGAGGUGAGAAAUACAGAGTT against Dbpht2, the z-score was inactive: -0.215.
GGUUCCUGUGAAUUAUGUGTT against H2ap: the z-score was inactive: 0.364.
In the case of GCUAUAUGCUGAGUAUGACTT against Olfr777 it was inactive: -1.07; in that of CGACAGAGGAAGGUAUUGGTT against Gcsh, active: -2.95.
For GGUCACCUACUAUCACAAGTT against Kcnh7 the value was inactive: -0.547.
For GAUAAUGGUCACUAAAUCUTT against Vmn1r4, the z-score was inactive: -1.65.
Take GUGUUCAAUAUACUGGCAATT against Klra10: the z-score was inactive: 1.66.
On to GGGUGUUAUUUUCUUCUAUTT against Stambp, for which the z-score is inactive: -0.496.
For GGGUUUAGACCAAUCCCUCTT against Adamts15 the value was inactive: -0.441; for CCAUAUUGAAACCUCAUUUTT against Fam126a, active: -2.33.
For GUCCUAGAGGAUCUGGAUGTT against Vmn1r210, the z-score was inactive: -1.44.
As for GGAAACAGGAAACAAUCUATT against Ccdc69, the z-score is inactive: 0.609.
On to CCAGGUGAAUUAAUAGUCUTT against Stk4, for which the z-score was inactive: 0.93.
Turning to GGGAGAGCAGUUUGAAUGGTT against Usp27x, the z-score is inactive: 1.13.
For GGGAAGAAUACUAUAGAUGTT against Slc12a2 the value was inactive: -0.137.
Consider UCGAGGACAGCAUGAACAGTT against Rims4, for which the z-score was inactive: -1.22.
Regarding GCUACAUGAUGUUUGGCAATT against Med7, the z-score was inactive: 0.549.
On to GCUACAAAUAUUCUUUGGCTT against Mmp20, for which the z-score is inactive: -1.46.
Take GGGACUUAAGUGAAGUUCATT against Ogfod2: the z-score is inactive: 0.232.
For the sequence GGCUGUUAUCCAGAGAGAUTT against Nim1k, the z-score was inactive: 0.177.
Consider GGACAUAAUCAAAUACAACTT against Eif3h, for which the z-score is inactive: 0.00392.
In the case of UCAACUCAAACUAUGUCGATT against Hoxb4 it was inactive: -0.172; in that of GGAAGACCUGAAGAAGGUGTT against Gck, inactive: -1.04; in that of GGCGACAGACUUAUUAUUGTT against Prdx5, inactive: -0.0257.
As for GGAAACUAGAUCAUGAGAUTT against Rtkn, the z-score was inactive: 0.105.
For the sequence GGCAUUCAGGAGGACUAGUTT against Lyz1, the z-score was inactive: -1.12.
Take GCUGGUUACAUGAAAUUAATT against Nup133: the z-score was inactive: -1.
Turning to GAUCCAAGACAAGGAAGGCTT against Uba52, the z-score was inactive: 0.661.
As to GGUUCAGAAGAGUCAGGAGTT against Dnajc14, the z-score was inactive: -0.091.
GGAAUGAUUUUCUUAAGGATT against Ddr2: the z-score was inactive: 0.387.
Consider GAUUACGUUGGCCUGUCUCTT against Tff3, for which the z-score was inactive: -0.119.
In the case of CCUUAAAGAACUAUCAUUGTT against Senp2, the z-score was inactive: -0.422.
For GGUUGGCUAGUCUGUCUGATT against Atp5h the value was inactive: 0.443; for “GGAAAAAGAUGCGACAAUGTT against A930012O16Rik”, inactive: -1.01; for “CCAUGAAGAACAAGAAAACTT against 1700010D01Rik”, inactive: 0.239.
“CCAAUGGUGAUCAAAGCGGTT against 8430429K09Rik”: the z-score is inactive: 0.175.
Regarding GCCUUUCUCAUUAGUCUCUTT against Vmn1r41, the z-score was inactive: -0.397.
For the sequence CGCAUUUCAAGGGAAAAUUTT against Tubgcp3, the z-score is inactive: 0.772.
For GCUCAUCAAAACACUGACCTT against Heatr1, the z-score was inactive: 0.166.
Turning to “GGAAGACAUGGUUUUGAAGTT against Vmn1r-ps103”, the z-score was inactive: -1.01.
In the case of CCGUUUCUUUCCAUGAUAATT against Aak1, the z-score is inactive: -0.379.
As for CCGCCUAGCUGAUCUUGUGTT against Aldh1b1, the z-score was inactive: -0.495.
As for GCAGUCCAGUAAUUAAUUCTT against Havcr2, the z-score is inactive: 0.61.
GGAAGAAUAUGCCAGAAUGTT against Stra8: the z-score is inactive: -0.294.
Consider GGACAUUCAUGGUGAUAGCTT against Sugp2, for which the z-score is inactive: -0.378.
GGCAAACCUGAAGAAGUUCTT against Shank3: the z-score was inactive: -1.43.
Take GGCAAAAUUAUGAAUGGCCTT against Rfk: the z-score was inactive: -0.27.
For CCCUCAAGGAUUUAGCCAUTT against Zfp473, the z-score is inactive: 0.0264.
As to GCAGGAUUGCAUAUAUCGGTT against Cspg5, the z-score was inactive: -0.672.
As for GCUGGUGCUCUUCACCAUATT against Fbxw17, the z-score is inactive: -0.419.
Consider CCUCCCAGAUUGCUCUAAUTT against Depp1, for which the z-score is inactive: -1.57.
Regarding GCCUGAGAUCGUGAACACUTT against Ccdc159, the z-score is inactive: -0.0179.
In the case of GGCGUGAAUGAAUUUGGAATT against Adam22, the z-score is inactive: -0.816.
As for GGCAUAGGACUAGAAGCAGTT against Rsrc2, the z-score was inactive: -1.54.
For the sequence GGUUUUCUUAGAUACUUUGTT against Fzd6, the z-score was inactive: 1.03.
As to GGAGAUGAAAUAAAGUGGATT against Acsm1, the z-score is inactive: -0.573.
Turning to GGAGAAGCUGGCAAAUAUGTT against Mbl1, the z-score is inactive: -0.63.
For the sequence CGGACAAAGGACGAGUGUUTT against Fn3krp, the z-score was active: 3.02.
With GGUGUCAGAUAAUGAUUGUTT against Susd6, the z-score is inactive: 0.576.
Regarding GGCUAUCCCUGUUGUGUCUTT against Kit, the z-score is inactive: -1.49.
Take GCAACAUUAGGAUUUAUAGTT against Gask1b: the z-score is inactive: 0.0376.
Take GGAUGCUUUGAAAUAAAACTT against Sptssb: the z-score is inactive: -0.744.
CCUAAGAGAUAAGAGCACCTT against Ppa2: the z-score was inactive: 0.381.
On to GGAGUUCUUCUUCAAUGAGTT against Kcnd3, for which the z-score is inactive: -1.3.
GGAAAUGUACAAGACUGAUTT against Anxa2: the z-score was active: 2.29.

Source of the values: PubChem BioAssay AID1508600 (Functional Genomics Laboratory (NCATS/FGL), 2020).
